The nature of series [1]: Extended battery cycling stability test. The note with it: for capacity decay rate: close to saturated anolyte with β-CD additive/1 M NaOH, ferro/ferricyanide catholyte, over half year (27S4CFL), 160 days (4C7SFL); for VE decrease: same extended cycling with β-CD additive.
A short description of series [2]: Flow battery rate capability test with additives.

Regarding `O=C(O)c1cccc2c1-c1ccc(S(=O)(=O)[O-])cc1C2=O.[K+]` [4C7SFL, 4-carboxylate-7-sulfonate fluorenone/fluorenol], in series [1], the capacity decay rate amounted to 0.020 %/day and the VE decrease entry is given as “around 5%”.
For `O=C(O)c1cc(S(=O)(=O)O)cc2c1-c1ccc(S(=O)(=O)O)cc1C2=O` [27S4CFL, 2,7-sulfonate-4-carboxylate fluorenone], in series [1], the capacity decay rate is 0.025 %/day and the VE decrease worked out at 9%.
Take `OC[C@@H](O)[C@@H](O)[C@H](O)[C@@H](O)CO` [sorbitol, D-sorbitol]: the “discharge capacity remained compared to the 5 mA/cm^2 test” value in series [2] (80 mA/cm^2) worked out at 81.4%; in series [2] (100 mA/cm^2), 68.4%.

(Values after patent US12555809B2, “Additives for fluorenone/fluorenol based aqueous redox flow batteries” (Battelle Memorial Institute, priority 2021, dated 2026).)
